Reference: PubChem BioAssay AID686937 (Drosophila RNAi Screening Center, 2013)
In all, the deposit lists about 23,000 reagents; this is an unselected part of those that have a named target and a result. 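Reduced-secretion tags in replicate 1 do not always agree with the z-scores; no criterion for assigning the tags was given.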 Names joined by + are all predicted targets of the reagent. Not all columns of the deposit are shown. Reagent sequences are not shown. The record does not give: the amount of reagent.

- Purpose: 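Knock-downs that reduce output of a secreted reporter enzyme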 (primary screen)
- Cell system: Drosophila S2 cells expressing secreted horseradish peroxidase
- Reagent: long dsRNA against Drosophila genes
- Time to read-out: about 5.5 days (5 days dsRNA, then 12 h reporter induction)
- Challenge: reporter expression induced after 5 days of dsRNA, read 12 h later; inducer not stated
- Detection: 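After 5 days of dsRNA and 12 h of reporter induction, medium peroxidase read by chemiluminescence and scored as per-plate z-score; higher values mean more reporter released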
- Scale: z-score: higher = more reporter secreted into medium

For ari-1 [DRSC20308], how do the results read?
z-score, replicate 1: 0.28

What is on record for ari-1 [DRSC21603]?
z-score, replicate 1: -0.65; phenotype, replicate 1: reduced secretion

For Jon44E [DRSC07216], how do the results read?
z-score, replicate 1: 0.32

With can [DRSC10664], how do the results read?
z-score, replicate 1: 0.72

For Mst36Fa [DRSC21564], how do the results read?
z-score, replicate 1: -0.05

Which result is listed for barc [DRSC11792]?
z-score, replicate 1: 0.01

What is on record for CG17378 [DRSC02616]?
z-score, replicate 1: -0.08

With CG12128 + CG1407 [DRSC06446], how do the results read?
z-score, replicate 1: 0.52

With Recs1 [DRSC16545], what was measured?
z-score, replicate 1: 0.32

With lectin-29Ca [DRSC02635], what was measured?
z-score, replicate 1: 0.21

For CG42326 [DRSC06483], what was measured?
z-score, replicate 1: 0.2

For CG42326 [DRSC06484], what was measured?
z-score, replicate 1: 0.21

How did the screen score CG12744 [DRSC06164]?
z-score, replicate 1: 0.31

Which result is listed for l(3)76BDm [DRSC11047]?
z-score, replicate 1: -0.18

How did the screen score CG14043 [DRSC02368]?
z-score, replicate 1: 0.11

What did the screen give for CG31244 [DRSC21589]?
z-score, replicate 1: -0.44
